PubChem BioAssay AID1508588, Peter MacCallum Cancer Centre | 2020
This is a random part of about 18,000 reagents tested. In the full data, 790 (4.4%) were called active. 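Calls rest on a combination of fold-change classes in drug and vehicle arms, not all shown here.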 No sequences are given here.

Aim: 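Knock-downs boosting vemurafenib effects on melanoma cell growth or lactate release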 (primary screen)
Cell system: human WM266.4 melanoma cells (BRAF V600 mutant)
Knock-down reagent: siRNA pool against human genes, 40 nM
Time to read-out: 96 h from transfection to read-out
Conditions: vemurafenib 300 nM (about IC25), added 48 h after transfection, for 48 h; comparison arm got DMSO vehicle only
Measured: 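Ratios to non-targeting siRNA for cell gain, counted as DAPI nuclei after minus before drug and averaged over two replicates, and for absorbance-read medium lactate per cell; both binned into fold-change classes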
Scale: cell gain with vemurafenib: higher = more cell gain than with non-targeting siRNA; lactate per cell with vemurafenib: higher = more lactate made per cell
Active means: 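Enhancement is called by pairing each knock-down's vehicle-arm and drug-arm fold-change classes for viability or glycolysis; which class combinations qualify is not given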
Calls: active = enhances vemurafenib effect; inactive = no enhancement seen

GLOD4 [SID134323140] → cell gain with vemurafenib = 0.89; lactate per cell with vemurafenib = 0.87; call = inactive
ANAPC15 [SID152149980] → cell gain with vemurafenib = 0.56; lactate per cell with vemurafenib = 0.83; call = inactive
JMJD8 [SID135624336] → cell gain with vemurafenib = 0.72; lactate per cell with vemurafenib = 0.8; call = inactive
PLEKHF2 [SID134322267] → cell gain with vemurafenib = 0.88; lactate per cell with vemurafenib = 0.68; call = inactive
PAWR [SID135620829] → cell gain with vemurafenib = 0.64; lactate per cell with vemurafenib = 0.75; call = inactive
NOTCH2NLA [SID152154691] → cell gain with vemurafenib = 0.25; lactate per cell with vemurafenib = 0.96; call = inactive
TCF4 [SID152154725] → cell gain with vemurafenib = 0.66; lactate per cell with vemurafenib = 0.78; call = inactive
VPS52 [SID152150480] → cell gain with vemurafenib = 0.36; lactate per cell with vemurafenib = 1.7; call = inactive
EDA [SID135620716] → cell gain with vemurafenib = 0.85; lactate per cell with vemurafenib = 1.16; call = inactive
SPIRE1 [SID135624367] → cell gain with vemurafenib = 0.55; lactate per cell with vemurafenib = 1.18; call = inactive
LAX1 [SID135624055] → cell gain with vemurafenib = -0.13; lactate per cell with vemurafenib = 3.45; call = inactive
SGMS2 [SID152153819] → cell gain with vemurafenib = 0.93; lactate per cell with vemurafenib = 0.32; call = inactive
AKR1C8 [SID152153938] → cell gain with vemurafenib = 0.42; lactate per cell with vemurafenib = 2.5; call = inactive
LGALSL [SID152154363] → cell gain with vemurafenib = 0.47; lactate per cell with vemurafenib = 1.4; call = inactive
G6PC1 [SID152155534] → cell gain with vemurafenib = 0.65; lactate per cell with vemurafenib = 0.27; call = inactive
OR6F1 [SID134329904] → cell gain with vemurafenib = 0.47; lactate per cell with vemurafenib = 1.45; call = inactive

A run of entries from the list above, for reference:
G6PC1 [SID152155534] → cell gain with vemurafenib = 0.65; lactate per cell with vemurafenib = 0.27; call = inactive
OR6F1 [SID134329904] → cell gain with vemurafenib = 0.47; lactate per cell with vemurafenib = 1.45; call = inactive
